Assay results as given in publication PMC4278274.
Results are given in words; binding and its absence hold for the method and conditions named. In cells and extracts the contact can be indirect. Some binding calls cover weakened binding; strength is not graded here.

By UniProt entry, the sequences of proteins in these tests, tags left out.
UniProt O00560: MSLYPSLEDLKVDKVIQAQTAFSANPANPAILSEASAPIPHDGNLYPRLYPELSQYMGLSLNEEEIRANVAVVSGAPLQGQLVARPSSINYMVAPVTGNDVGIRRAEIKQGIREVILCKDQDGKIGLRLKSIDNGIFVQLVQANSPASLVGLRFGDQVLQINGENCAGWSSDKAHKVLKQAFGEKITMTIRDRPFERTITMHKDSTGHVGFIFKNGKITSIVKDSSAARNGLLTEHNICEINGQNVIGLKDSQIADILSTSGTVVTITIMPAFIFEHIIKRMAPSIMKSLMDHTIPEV
UniProt P35222: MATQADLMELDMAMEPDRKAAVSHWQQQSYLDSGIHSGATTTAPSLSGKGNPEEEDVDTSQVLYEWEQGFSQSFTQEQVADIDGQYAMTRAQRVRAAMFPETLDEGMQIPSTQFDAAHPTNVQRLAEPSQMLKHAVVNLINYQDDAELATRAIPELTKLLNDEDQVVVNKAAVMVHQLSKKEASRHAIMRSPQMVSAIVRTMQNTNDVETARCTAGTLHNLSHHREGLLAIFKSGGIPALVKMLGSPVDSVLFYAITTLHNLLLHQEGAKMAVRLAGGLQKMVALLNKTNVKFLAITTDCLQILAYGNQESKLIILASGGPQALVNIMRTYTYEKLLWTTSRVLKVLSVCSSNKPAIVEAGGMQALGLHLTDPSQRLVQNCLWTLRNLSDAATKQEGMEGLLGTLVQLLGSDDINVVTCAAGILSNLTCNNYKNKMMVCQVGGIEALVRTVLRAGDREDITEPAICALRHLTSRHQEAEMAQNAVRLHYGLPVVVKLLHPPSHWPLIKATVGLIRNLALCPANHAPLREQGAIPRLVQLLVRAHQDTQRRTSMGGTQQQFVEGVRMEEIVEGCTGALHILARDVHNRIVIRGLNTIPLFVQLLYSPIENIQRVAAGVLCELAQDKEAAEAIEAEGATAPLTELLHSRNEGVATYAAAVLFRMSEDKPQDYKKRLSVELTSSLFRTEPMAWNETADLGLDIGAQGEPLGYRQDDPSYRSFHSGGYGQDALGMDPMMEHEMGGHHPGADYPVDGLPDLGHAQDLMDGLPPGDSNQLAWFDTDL

Target: MDA-9/Syntenin (human (endogenous in oral epithelial cell lines)) (UniProt O00560)
Assay: co-IP; immunoprecipitation from whole cell lysates of oral epithelial cell lines, control immunoglobulin G, read by immunoblotting; protocol as in ref. 4

binding: binds
Substance: CTNNB1 (from UniProt P35222 1-781)
